Data reported in the supplement of paper PMC12819154, “High-throughput peptide-centric local stability assay extends protein–ligand identification to membrane proteins, tissues and bacteria” (Nature Structural & Molecular Biology, 2025).
The list shows a part of the results. Most entries show no effect beyond the scatter of the controls.

Chains of the proteins cited; added tags and fusions are not shown. Lines headed by an entry give the natural chain unless they say otherwise; changes in a name come on top.
UniProt Q96AZ6: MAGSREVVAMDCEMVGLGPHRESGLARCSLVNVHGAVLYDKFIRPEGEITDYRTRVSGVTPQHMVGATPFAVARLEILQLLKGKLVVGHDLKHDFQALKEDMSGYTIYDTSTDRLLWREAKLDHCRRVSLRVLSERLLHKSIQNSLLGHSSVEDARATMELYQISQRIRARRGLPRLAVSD
UniProt Q96BV0: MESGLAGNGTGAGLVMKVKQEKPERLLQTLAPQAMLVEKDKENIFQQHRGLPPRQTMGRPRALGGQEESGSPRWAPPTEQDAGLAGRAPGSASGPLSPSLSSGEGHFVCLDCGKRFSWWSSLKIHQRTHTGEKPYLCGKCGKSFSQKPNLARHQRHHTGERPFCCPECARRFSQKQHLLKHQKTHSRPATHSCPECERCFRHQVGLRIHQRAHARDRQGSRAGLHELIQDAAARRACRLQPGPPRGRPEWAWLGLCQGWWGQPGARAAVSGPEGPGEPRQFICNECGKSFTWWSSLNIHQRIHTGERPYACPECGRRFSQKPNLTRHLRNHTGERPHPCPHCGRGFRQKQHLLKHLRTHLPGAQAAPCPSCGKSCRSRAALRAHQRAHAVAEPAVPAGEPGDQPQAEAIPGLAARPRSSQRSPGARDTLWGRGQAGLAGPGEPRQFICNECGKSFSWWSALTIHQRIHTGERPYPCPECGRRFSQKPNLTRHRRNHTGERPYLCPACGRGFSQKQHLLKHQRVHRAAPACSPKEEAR
UniProt Q96BT3, whole entry: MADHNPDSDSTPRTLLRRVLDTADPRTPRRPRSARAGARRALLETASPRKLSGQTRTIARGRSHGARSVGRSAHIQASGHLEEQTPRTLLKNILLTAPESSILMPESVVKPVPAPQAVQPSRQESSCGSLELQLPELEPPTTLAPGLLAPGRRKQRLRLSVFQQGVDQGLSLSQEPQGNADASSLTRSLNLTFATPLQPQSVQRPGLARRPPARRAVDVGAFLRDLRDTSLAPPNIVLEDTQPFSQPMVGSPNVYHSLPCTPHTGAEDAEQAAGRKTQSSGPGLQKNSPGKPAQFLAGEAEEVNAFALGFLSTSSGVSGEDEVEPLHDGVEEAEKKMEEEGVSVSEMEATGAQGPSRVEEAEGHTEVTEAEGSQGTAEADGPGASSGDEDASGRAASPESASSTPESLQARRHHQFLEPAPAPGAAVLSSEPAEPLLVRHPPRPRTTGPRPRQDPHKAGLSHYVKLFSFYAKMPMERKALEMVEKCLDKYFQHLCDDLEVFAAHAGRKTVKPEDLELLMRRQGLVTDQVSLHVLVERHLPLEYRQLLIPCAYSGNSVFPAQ
UniProt Q92797: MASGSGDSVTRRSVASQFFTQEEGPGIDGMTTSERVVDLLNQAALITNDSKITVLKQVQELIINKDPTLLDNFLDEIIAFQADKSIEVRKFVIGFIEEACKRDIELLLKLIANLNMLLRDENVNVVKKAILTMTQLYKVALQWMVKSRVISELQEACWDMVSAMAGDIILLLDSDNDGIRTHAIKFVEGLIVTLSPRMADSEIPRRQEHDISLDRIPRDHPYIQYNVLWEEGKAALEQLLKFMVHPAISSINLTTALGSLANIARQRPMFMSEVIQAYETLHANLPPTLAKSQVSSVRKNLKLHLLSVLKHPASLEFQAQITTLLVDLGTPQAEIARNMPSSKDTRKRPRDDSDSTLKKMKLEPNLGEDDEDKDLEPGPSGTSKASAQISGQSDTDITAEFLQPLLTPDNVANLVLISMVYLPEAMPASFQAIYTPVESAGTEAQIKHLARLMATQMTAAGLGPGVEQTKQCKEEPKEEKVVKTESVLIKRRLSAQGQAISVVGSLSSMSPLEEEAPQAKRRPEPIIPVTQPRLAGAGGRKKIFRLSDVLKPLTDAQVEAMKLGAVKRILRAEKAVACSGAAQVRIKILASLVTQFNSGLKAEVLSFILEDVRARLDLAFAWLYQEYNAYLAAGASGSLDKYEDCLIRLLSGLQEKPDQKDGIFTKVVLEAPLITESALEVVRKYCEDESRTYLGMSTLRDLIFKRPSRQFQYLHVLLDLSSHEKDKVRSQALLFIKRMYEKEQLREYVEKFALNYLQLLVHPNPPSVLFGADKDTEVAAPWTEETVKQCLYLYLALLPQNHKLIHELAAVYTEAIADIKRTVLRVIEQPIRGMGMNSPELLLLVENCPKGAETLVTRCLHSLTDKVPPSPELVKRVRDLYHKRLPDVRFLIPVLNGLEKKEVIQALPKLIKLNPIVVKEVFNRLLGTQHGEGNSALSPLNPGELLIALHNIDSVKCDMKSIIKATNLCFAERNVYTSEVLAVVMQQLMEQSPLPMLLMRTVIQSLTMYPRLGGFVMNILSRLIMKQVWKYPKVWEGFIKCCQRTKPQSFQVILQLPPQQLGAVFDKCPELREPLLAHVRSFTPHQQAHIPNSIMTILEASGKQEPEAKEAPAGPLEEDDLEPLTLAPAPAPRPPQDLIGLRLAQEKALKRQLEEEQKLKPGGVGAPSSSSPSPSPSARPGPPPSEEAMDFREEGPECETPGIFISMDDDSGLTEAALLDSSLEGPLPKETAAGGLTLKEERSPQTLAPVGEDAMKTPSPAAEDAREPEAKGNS
UniProt Q96CU9: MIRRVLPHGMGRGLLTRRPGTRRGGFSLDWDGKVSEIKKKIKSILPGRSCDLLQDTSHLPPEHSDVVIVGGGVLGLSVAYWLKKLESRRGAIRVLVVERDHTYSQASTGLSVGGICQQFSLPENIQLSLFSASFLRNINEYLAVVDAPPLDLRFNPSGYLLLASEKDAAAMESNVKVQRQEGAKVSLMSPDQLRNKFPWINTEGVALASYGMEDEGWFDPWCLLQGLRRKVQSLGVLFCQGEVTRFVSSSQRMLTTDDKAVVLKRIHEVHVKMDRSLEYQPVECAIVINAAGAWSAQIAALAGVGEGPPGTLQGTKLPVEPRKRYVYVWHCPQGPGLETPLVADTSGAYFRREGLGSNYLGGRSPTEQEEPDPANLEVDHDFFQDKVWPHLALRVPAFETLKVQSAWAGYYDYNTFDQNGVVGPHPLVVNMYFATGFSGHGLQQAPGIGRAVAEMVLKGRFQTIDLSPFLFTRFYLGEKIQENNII
UniProt Q96BS2: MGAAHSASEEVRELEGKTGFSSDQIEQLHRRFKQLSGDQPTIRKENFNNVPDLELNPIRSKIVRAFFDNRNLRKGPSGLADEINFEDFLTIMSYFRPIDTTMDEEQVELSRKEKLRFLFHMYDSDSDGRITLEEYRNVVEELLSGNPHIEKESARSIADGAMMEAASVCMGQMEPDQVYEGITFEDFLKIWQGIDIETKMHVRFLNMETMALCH
UniProt Q96A00: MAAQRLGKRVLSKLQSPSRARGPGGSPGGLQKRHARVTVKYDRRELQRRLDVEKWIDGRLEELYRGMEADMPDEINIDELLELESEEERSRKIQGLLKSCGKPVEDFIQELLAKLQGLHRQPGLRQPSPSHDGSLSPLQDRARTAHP
UniProt Q96BH1: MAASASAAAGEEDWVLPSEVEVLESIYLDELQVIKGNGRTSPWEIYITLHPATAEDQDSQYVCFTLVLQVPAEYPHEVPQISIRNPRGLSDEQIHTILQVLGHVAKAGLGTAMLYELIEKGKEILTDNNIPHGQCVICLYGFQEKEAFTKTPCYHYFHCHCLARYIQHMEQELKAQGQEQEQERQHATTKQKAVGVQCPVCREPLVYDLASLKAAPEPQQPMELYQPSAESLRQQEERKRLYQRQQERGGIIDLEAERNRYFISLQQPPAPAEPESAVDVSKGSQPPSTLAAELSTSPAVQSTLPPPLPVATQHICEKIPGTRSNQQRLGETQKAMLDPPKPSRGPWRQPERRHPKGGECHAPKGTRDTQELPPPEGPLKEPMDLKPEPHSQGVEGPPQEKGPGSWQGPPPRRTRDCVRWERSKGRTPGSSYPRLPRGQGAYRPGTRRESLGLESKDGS
UniProt Q92620: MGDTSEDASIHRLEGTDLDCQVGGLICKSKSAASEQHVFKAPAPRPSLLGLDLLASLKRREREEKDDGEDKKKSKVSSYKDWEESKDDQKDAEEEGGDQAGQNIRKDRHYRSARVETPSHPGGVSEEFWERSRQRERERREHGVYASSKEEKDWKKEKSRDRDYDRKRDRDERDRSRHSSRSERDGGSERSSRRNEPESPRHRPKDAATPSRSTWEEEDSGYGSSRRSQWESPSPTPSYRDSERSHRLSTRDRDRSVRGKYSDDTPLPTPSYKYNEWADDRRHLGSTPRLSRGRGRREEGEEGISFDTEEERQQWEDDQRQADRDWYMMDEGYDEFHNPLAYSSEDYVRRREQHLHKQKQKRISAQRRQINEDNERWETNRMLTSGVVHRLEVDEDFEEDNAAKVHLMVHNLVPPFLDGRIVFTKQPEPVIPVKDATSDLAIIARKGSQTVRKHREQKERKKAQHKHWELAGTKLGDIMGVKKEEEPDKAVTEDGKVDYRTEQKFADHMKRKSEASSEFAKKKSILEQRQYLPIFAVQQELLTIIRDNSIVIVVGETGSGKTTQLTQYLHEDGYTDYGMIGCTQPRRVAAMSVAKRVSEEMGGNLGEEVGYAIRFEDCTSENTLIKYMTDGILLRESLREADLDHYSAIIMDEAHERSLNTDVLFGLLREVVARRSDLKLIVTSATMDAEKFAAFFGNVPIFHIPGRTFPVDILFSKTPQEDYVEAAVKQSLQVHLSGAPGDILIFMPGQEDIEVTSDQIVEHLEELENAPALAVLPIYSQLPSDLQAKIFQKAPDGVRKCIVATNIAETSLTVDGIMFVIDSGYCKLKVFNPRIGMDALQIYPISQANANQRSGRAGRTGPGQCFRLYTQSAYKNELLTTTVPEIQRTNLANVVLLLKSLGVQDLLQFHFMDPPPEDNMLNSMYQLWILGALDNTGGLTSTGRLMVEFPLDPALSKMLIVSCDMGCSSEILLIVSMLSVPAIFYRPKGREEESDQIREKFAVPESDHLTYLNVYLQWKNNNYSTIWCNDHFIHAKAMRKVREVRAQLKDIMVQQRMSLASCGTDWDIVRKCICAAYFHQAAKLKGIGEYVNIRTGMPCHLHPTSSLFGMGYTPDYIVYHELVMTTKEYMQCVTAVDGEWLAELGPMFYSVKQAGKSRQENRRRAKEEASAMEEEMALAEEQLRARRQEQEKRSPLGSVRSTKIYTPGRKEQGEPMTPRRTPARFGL
UniProt Q96AJ9: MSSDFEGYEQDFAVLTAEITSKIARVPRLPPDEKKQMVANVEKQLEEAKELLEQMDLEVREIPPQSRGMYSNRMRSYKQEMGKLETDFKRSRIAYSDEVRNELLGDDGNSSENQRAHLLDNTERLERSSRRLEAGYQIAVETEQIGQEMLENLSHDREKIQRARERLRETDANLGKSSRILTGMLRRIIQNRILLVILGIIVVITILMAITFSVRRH
UniProt Q96B54: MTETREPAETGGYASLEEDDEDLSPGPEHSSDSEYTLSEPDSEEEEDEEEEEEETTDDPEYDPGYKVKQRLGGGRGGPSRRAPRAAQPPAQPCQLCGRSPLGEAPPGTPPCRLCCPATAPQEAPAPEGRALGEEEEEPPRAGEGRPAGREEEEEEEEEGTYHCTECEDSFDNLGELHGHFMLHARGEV
UniProt Q92841: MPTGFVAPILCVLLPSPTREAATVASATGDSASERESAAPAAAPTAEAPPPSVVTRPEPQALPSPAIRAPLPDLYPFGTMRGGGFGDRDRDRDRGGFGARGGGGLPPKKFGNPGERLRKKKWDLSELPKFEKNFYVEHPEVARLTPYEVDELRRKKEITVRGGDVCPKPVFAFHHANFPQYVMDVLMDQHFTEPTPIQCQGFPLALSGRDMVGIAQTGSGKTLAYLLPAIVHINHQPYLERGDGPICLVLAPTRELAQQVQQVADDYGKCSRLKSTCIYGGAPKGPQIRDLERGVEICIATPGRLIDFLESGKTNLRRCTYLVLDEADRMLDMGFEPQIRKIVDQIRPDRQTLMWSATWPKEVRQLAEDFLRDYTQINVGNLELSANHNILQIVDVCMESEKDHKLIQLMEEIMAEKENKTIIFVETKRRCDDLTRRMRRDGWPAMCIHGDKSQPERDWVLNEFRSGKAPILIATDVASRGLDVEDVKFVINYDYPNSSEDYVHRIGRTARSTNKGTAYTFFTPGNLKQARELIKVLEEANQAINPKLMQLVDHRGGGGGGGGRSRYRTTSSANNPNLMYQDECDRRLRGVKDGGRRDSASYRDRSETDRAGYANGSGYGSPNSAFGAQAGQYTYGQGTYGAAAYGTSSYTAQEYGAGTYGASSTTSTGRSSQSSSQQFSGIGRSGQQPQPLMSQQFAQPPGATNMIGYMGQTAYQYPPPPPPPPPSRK

These targets were tested with Cc1nc(Nc2ncc(C(=O)Nc3c(C)cccc3Cl)s2)cc(N2CCN(CCO)CC2)n1 [dasatinib] (assay: log2 fold change of tryptic peptide abundance, ligand vs vehicle (limited proteolysis) (log2 ratio); higher = more trypsin-susceptible (destabilized)). Details: ligand concentration: 5 uM; sample: K562 cleared lysate.

Row | Target | log2 fold change
1 | UniProt Q96BN2 (peptide sequence: LLTQDNVHSHNDFLLAILTR, peptide start residue: 50) | -0.745
2 | ISG20 (peptide sequence: SIQNSLLGHSSVEDAR, peptide start residue: 141) (UniProt Q96AZ6) | 0.614
3 | UniProt Q96BV0 (peptide sequence: THSRPATHSCPECER, peptide start residue: 184) | 0.55
4 | CENPT (peptide sequence: AVDVGAFLR, peptide start residue: 216) (UniProt Q96BT3) | -0.146
5 | SYMPK (peptide sequence: CLHSLTDKVPPSPELVK, peptide start residue: 859) (UniProt Q92797) | -0.661
6 | FOXRED1 (peptide sequence: VPAFETLK, peptide start residue: 395) (UniProt Q96CU9) | -0.154
7 | CYFIP2 (peptide sequence: EFFLELTMGRR, peptide start residue: 625) (UniProt Q96F07) | 0.265
8 | PSMG2 (peptide sequence: TLYDESCSK, peptide start residue: 189) (UniProt Q969U7) | 0.156
9 | TNPO1 (peptide sequence: FLQFFKHSSPK, peptide start residue: 187) (UniProt Q92973) | 0.535
10 | NUP205 (peptide sequence: YLYHGNTNPELAFESAK, peptide start residue: 902) (UniProt Q92621) | -0.199
11 | UniProt Q96A08 (peptide sequence: ESYSIYIYK, peptide start residue: 37) | 0.212
12 | ANP32B (peptide sequence: LPNLTHLNLSGNKLK, peptide start residue: 87) (UniProt Q92688) | -0.498
13 | TESC (peptide sequence: ITLEEYR, peptide start residue: 130) (UniProt Q96BS2) | 0.139
14 | HPS3 (peptide sequence: VHHHPHK, peptide start residue: 221) (UniProt Q969F9) | -0.21
15 | UniProt Q93015 (peptide sequence: LMEGLEVFAR, peptide start residue: 156) | 0.153
16 | VPS33A (peptide sequence: VLDYYKR, peptide start residue: 424) (UniProt Q96AX1) | 0.171
17 | PPP1R14A (peptide sequence: ARGPGGSPGGLQKR, peptide start residue: 20) (UniProt Q96A00) | -0.115
18 | RNF25 (peptide sequence: EPLVYDLASLK, peptide start residue: 203) (UniProt Q96BH1) | -0.491
19 | GPKOW (peptide sequence: ELVIPLIQNGHR, peptide start residue: 68) (UniProt Q92917) | -0.0604
20 | DHX38 (peptide sequence: YMTDGILLR, peptide start residue: 627) (UniProt Q92620) | 0.0897
21 | AKT1S1 (peptide sequence: SLPVSVPVWGFKEK, peptide start residue: 183) (UniProt Q96B36) | 0.225
22 | FAM136A (peptide sequence: CVDDHMHLIPTMTK, peptide start residue: 114) (UniProt Q96C01) | 0.176
23 | VTI1A (peptide sequence: AHLLDNTERLER, peptide start residue: 116) (UniProt Q96AJ9) | -0.142
24 | ZNF428 (peptide sequence: ALGEEEEEPPR, peptide start residue: 130) (UniProt Q96B54) | -0.036
25 | UniProt Q969J3 (peptide sequence: YQDHLHQCAEAVAFDQNALVKR, peptide start residue: 96) | 0.862
26 | SYTL4 (peptide sequence: ATGDWFYDQK, peptide start residue: 114) (UniProt Q96C24) | 0.197
27 | UniProt Q92841 (peptide sequence: RDGWPAMCIHGDK, peptide start residue: 440) | 0.315
28 | MTMR8 (peptide sequence: THSVWPFLVQR, peptide start residue: 456) (UniProt Q96EF0) | -0.732

As a working copy, part of the list above:
Row | Target | log2 fold change
21 | AKT1S1 (peptide sequence: SLPVSVPVWGFKEK, peptide start residue: 183) (UniProt Q96B36) | 0.225
22 | FAM136A (peptide sequence: CVDDHMHLIPTMTK, peptide start residue: 114) (UniProt Q96C01) | 0.176
